# ± gives the standard deviation of the averaged measurements. This is one part of the list. These are raw signals, not scaled to a control.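 In this assay, LPS from bacteria induces microglia-mediated neuronal death in a neuron–microglia–astrocyte co-culture, a model of inflammatory neurodegeneration. Compounds were compared against same-plate DMSO vehicle wells, with the SYK inhibitor BAY61-3606 as reference neuroprotective control.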
# System: rat primary cerebellar neuron-glia coculture
# Test: live neuron count (NeuO+) per image field (cells per field); higher = more surviving neurons
# Details: LPS 0 ng/mL; 1 µM; treatment time 3 days
# Experimental: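 Primary rat (P3-7) cerebellar neuron-glia cocultures in 384-well plates were treated at DIV7 with 1 uM compound, then with or without 100 ng/mL LPS 30 min later, for 3 days. At DIV10 live cells were stained with Hoechst 33342, NeuO (live neurons), IB4-AF594 (microglia) and DRAQ7 (necrotic cells) and imaged at 10x (4 fields per well, IN Cell Analyzer 6000). Cells were classified with Cellpose/CellProfiler plus a Random Trees classifier. Values are per-well mean counts per image field (raw, not min-max normalised) and the median microglial FormFactor per image. Three technical replicates per repeat across 4 biological repeats; DMSO and BAY61-3606 serve as controls.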
row,SMILES,live neuron count
1,CCOC(=O)[C@H](CCc1ccccc1)N[C@@H](C)C(=O)N1CCC[C@H]1C(=O)O,2450 ± 740
2,CN1[C@@H](CC(=O)c2ccccc2)CCC[C@H]1C[C@H](O)c1ccccc1,2400 ± 710
3,Cc1c(F)cc(C(=O)NC2CC2)cc1-c1ccc(C(=O)NCC(C)(C)C)cn1,2540 ± 450
4,CC[C@H]1[C@@H](O)[C@@H]2[C@H](CC[C@]3(C)[C@@H]([C@H](C)CCC(=O)O)CC[C@@H]23)[C@@]2(C)CC[C@@H](O)C[C@@H]12,2700 ± 340
5,N=C1CCCN1Cc1[nH]c(=O)[nH]c(=O)c1Cl,2650 ± 430
6,O=C(c1cc(Cc2n[nH]c(=O)c3ccccc23)ccc1F)N1CCN(C(=O)C2CC2)CC1,2790 ± 420
7,CC(C)NCC(O)c1ccc(O)c(O)c1 (stereo not given),2620 ± 550
8,Cc1ccc(-n2cnc3c(sc4nccc(N(C)C)c43)c2=O)cc1,2550 ± 330
9,O=C(O)CS/C=C/c1ccccc1,2670 ± 440
10,O=C(CN1C(=O)C2(CCCC2)NC[C@H]1c1cc(F)cc(F)c1)Nc1ccc2c(c1)C[C@@]1(C2)C(=O)Nc2ncccc21,2380 ± 700
11,O=C(Nc1cccc(C(F)(F)F)c1)Nc1cc(S(=O)(=O)NC2CC2)ccc1-c1ccsc1,2600 ± 450
12,Cc1noc(C)c1CC(=O)NCc1ccccc1Cl,2630 ± 490
13,COc1ccc(CC(=O)NCc2ccccc2-c2ccccc2C(=O)NCc2ccc(F)cc2F)cc1,2650 ± 440
14,CC(C)NC[C@@H](C(=O)N1CCN(c2ncnc3c2[C@H](C)C[C@H]3O)CC1)c1ccc(Cl)cc1,2480 ± 470
15,O=C(Oc1nsnc1N1CCCCC1)N1CCOCC1,2710 ± 580
16,N#C[C@@H]1CC(F)(F)CN1C(=O)CNC(=O)c1ccnc2ccccc12,2650 ± 400
17,Oc1noc2cc(Cl)ccc12,2700 ± 400
18,CC1(C)Cc2c(c(N3CCOCC3)nc3sc4c(NCCN5CCOCC5)ncnc4c23)CO1,2610 ± 410
19,CN(C(=O)c1ccccc1)c1ccc(C(O)(C(F)(F)F)C(F)(F)F)cc1,2210 ± 700
20,N#Cc1cccc(NC(=O)c2ccccn2)c1,2720 ± 570

# Same assay, conditions: LPS 100 ng/mL; 1 µM; treatment time 3 days
row,SMILES,live neuron count
1,CCOC(=O)[C@H](CCc1ccccc1)N[C@@H](C)C(=O)N1CCC[C@H]1C(=O)O,435 ± 610
2,CN1[C@@H](CC(=O)c2ccccc2)CCC[C@H]1C[C@H](O)c1ccccc1,579 ± 590
3,Cc1c(F)cc(C(=O)NC2CC2)cc1-c1ccc(C(=O)NCC(C)(C)C)cn1,1840 ± 650
4,CC[C@H]1[C@@H](O)[C@@H]2[C@H](CC[C@]3(C)[C@@H]([C@H](C)CCC(=O)O)CC[C@@H]23)[C@@]2(C)CC[C@@H](O)C[C@@H]12,299 ± 400
5,N=C1CCCN1Cc1[nH]c(=O)[nH]c(=O)c1Cl,248 ± 200
6,O=C(c1cc(Cc2n[nH]c(=O)c3ccccc23)ccc1F)N1CCN(C(=O)C2CC2)CC1,314 ± 280
7,CC(C)NCC(O)c1ccc(O)c(O)c1 (stereo not given),578 ± 520
8,Cc1ccc(-n2cnc3c(sc4nccc(N(C)C)c43)c2=O)cc1,412 ± 660
9,O=C(O)CS/C=C/c1ccccc1,460 ± 450
10,O=C(CN1C(=O)C2(CCCC2)NC[C@H]1c1cc(F)cc(F)c1)Nc1ccc2c(c1)C[C@@]1(C2)C(=O)Nc2ncccc21,315 ± 360
11,O=C(Nc1cccc(C(F)(F)F)c1)Nc1cc(S(=O)(=O)NC2CC2)ccc1-c1ccsc1,260 ± 340
12,Cc1noc(C)c1CC(=O)NCc1ccccc1Cl,240 ± 240
13,COc1ccc(CC(=O)NCc2ccccc2-c2ccccc2C(=O)NCc2ccc(F)cc2F)cc1,559 ± 620
14,CC(C)NC[C@@H](C(=O)N1CCN(c2ncnc3c2[C@H](C)C[C@H]3O)CC1)c1ccc(Cl)cc1,578 ± 950
15,O=C(Oc1nsnc1N1CCCCC1)N1CCOCC1,243 ± 360
16,N#C[C@@H]1CC(F)(F)CN1C(=O)CNC(=O)c1ccnc2ccccc12,364 ± 250
17,Oc1noc2cc(Cl)ccc12,186 ± 130
18,CC1(C)Cc2c(c(N3CCOCC3)nc3sc4c(NCCN5CCOCC5)ncnc4c23)CO1,153 ± 160
19,CN(C(=O)c1ccccc1)c1ccc(C(O)(C(F)(F)F)C(F)(F)F)cc1,1970 ± 500
20,N#Cc1cccc(NC(=O)c2ccccn2)c1,186 ± 170
